Test results as given in US20070060566A1, “Benzazepine derivatives as histamine h3 antagonists” (priority 2003, published 2007).
Some results were stated once for a whole list of compounds, not compound by compound.

Chains of the proteins cited; added tags and fusions are not shown. Lines headed by an entry give the natural chain unless they say otherwise; changes in a name come on top.
UniProt Q9Y5N1: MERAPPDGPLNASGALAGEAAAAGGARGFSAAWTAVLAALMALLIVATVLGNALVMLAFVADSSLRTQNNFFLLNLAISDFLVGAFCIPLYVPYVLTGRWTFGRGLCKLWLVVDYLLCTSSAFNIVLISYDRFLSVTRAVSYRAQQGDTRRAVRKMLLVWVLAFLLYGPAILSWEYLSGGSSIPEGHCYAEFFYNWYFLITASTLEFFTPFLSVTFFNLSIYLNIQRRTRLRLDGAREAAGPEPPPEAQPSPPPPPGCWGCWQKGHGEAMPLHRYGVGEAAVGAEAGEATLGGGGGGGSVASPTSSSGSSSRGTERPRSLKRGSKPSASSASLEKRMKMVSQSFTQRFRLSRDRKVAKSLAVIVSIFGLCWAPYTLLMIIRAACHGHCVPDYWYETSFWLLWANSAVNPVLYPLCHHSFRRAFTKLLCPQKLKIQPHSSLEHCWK

What follows are compounds tested against T1, human histamine H3 receptor (Homo sapiens, UniProt Q9Y5N1) (assay: Histamine H3 functional antagonist assay ([35S]GTPγS SPA on membranes)). Settings: membranes of CHO K1 cells expressing human histamine H3; histamine 0.3 μM.
T1 construct: expressed in transfected cells; host or cells: CHO K1 cells carrying the pSwitch regulatory plasmid, transfected with pGeneH3, induced with mifepristone; clone 3H3
Assay type: biochemical

Antagonism (pKb), > 6.5 pKb:
O=C(Nc1ccc2c(c1)CCN(C1CCC1)CC2)c1ccc(-c2ccc(F)cc2)cn1 [Example 102, N-(3-Cyclobutyl-2,3,4,5-tetrahydro-1H-3-benzazepin-7-yl)-5-(4-fluorophenyl)-2-pyridinecarboxamide]
O=C(/C=C/c1ccccc1F)Nc1ccc2c(c1)CCN(C1CCC1)CC2.O=C(O)C(F)(F)F [Example 259, (2E)-N-(3-Cyclobutyl-2,3,4,5-tetrahydro-1H-3-benzazepin-7-yl)-3-(2-fluorophenyl)-2-propenamide trifluoroacetate]
CCc1nnn(-c2ccccc2)c1C(=O)Nc1ccc2c(c1)CCN(C1CCC1)CC2.O=C(O)C(F)(F)F [Example 206, N-(3-Cyclobutyl-2,3,4,5-tetrahydro-1H-3-benzazepin-7-yl)-4-ethyl-1-phenyl-1H-1,2,3-triazole-5-carboxamide trifluoroacetate]
O=C(Nc1ccc2c(c1)CCN(C1CCC1)CC2)c1cc(-c2cccnc2)[nH]n1 [Example 43, N-(3-Cyclobutyl-2,3,4,5-tetrahydro-1H-3-benzazepin-7-yl)-5-(3-pyridinyl)-1H-pyrazole-3-carboxamide]
CN(C(=O)c1ccc(-c2cncnc2)cc1)c1ccc2c(c1)CCN(C1CCC1)CC2 [Example 127, N-(3-Cyclobutyl-2,3,4,5-tetrahydro-1H-3-benzazepin-7-yl)-N-methyl-4-(5-pyrimidinyl)benzamide]
O=C(Nc1ccc2c(c1)CCN(C1CCC1)CC2)c1cncc(-c2cccnc2)c1 [Example 79, N-(3-Cyclobutyl-2,3,4,5-tetrahydro-1H-3-benzazepin-7-yl)-3,3′-bipyridine-5-carboxamide]
O=C(Nc1ccc2c(c1)CCN(C1CCC1)CC2)c1ccccc1C(F)(F)F.O=C(O)C(F)(F)F [Example 250, N-(3-Cyclobutyl-2,3,4,5-tetrahydro-1H-3-benzazepin-7-yl)-2-(trifluoromethyl)benzamide trifluoroacetate]
O=C(Nc1ccc2c(c1)CCN(C1CCC1)CC2)c1csc(-c2ccc3nonc3c2)n1 [Example 74, 2-(2,1,3-Benzoxadiazol-5-yl)-N-(3-cyclobutyl-2,3,4,5-tetrahydro-1H-3-benzazepin-7-yl)-1,3-thiazole-4-carboxamide]
Cc1nc(C)c(C(=O)Nc2ccc3c(c2)CCN(C2CCC2)CC3)s1 [Example 84, N-(3-Cyclobutyl-2,3,4,5-tetrahydro-1H-3-benzazepin-7-yl)-2,4-dimethyl-1,3-thiazole-5-carboxamide]
O=C(Nc1ccccc1)Nc1ccc2c(c1)CCN(C1CCC1)CC2 [Example 129, N-(3-Cyclobutyl-2,3,4,5-tetrahydro-1H-3-benzazepin-7-yl)-N′-phenylurea]
CCn1nc(-c2cccs2)cc1C(=O)Nc1ccc2c(c1)CCN(C1CCC1)CC2.O=C(O)C(F)(F)F [Example 203, N-(3-Cyclobutyl-2,3,4,5-tetrahydro-1H-3-benzazepin-7-yl)-1-ethyl-3-(2-thienyl)-1H-pyrazole-5-carboxamide trifluoroacetate]
O=C(Nc1ccc2c(c1)CCN(C1CCC1)CC2)c1ccc(-c2cocn2)cc1 [Example 10, N-(3-Cyclobutyl-2,3,4,5-tetrahydro-1H-3-benzazepin-7-yl)-4-(1,3-oxazol-4-yl)benzamide]
CC(=O)Nc1ccc2c(c1)CCN(C1CCC1)CC2 [Example 4, N-(3-Cyclobutyl-2,3,4,5-tetrahydro-1H-3-benzazepin-7-yl)acetamide]
Cc1nn(-c2ccccc2)nc1C(=O)Nc1ccc2c(c1)CCN(C1CCCCC1)CC2.Cl [Example 278, N-(3-Cyclohexyl-2,3,4,5-tetrahydro-1H-3-benzazepin-7-yl)-5-methyl-2-phenyl-2H-1,2,3-triazole-4-carboxamide hydrochloride]
COc1c(C(=O)Nc2ccc3c(c2)CCN(C2CCC2)CC3)ccc2ccccc12.Cl [Example 275, N-(3-Cyclobutyl-2,3,4,5-tetrahydro-1H-3-benzazepin-7-yl)-1-(methyloxy)-2-naphthalenecarboxamide hydrochloride]
CN(C(=O)Nc1ccc2c(c1)CCN(C1CCC1)CC2)c1ccc(C#N)cc1 [Example 173, N-(4-Cyanophenyl)-N′-(3-cyclobutyl-2,3,4,5-tetrahydro-1H-3-benzazepin-7-yl)-N-methylurea]
O=C(Nc1ccc2c(c1)CCN(C1CCC1)CC2)c1csnn1 [Example 67, N-(3-Cyclobutyl-2,3,4,5-tetrahydro-1H-3-benzazepin-7-yl)-1,2,3-thiadiazole-4-carboxamide]
N#Cc1ccc(-c2ccc(C(=O)Nc3ccc4c(c3)CCN(C3CCC3)CC4)nc2)cn1 [Example 104, 6′-Cyano-N-(3-cyclobutyl-2,3,4,5-tetrahydro-1H-3-benzazepin-7-yl)-3,3′-bipyridine-6-carboxamide]
Cc1ccccc1-n1ncc(C(=O)Nc2ccc3c(c2)CCN(C2CCC2)CC3)c1C.Cl [Example 274, N-(3-Cyclobutyl-2,3,4,5-tetrahydro-1H-3-benzazepin-7-yl)-5-methyl-1-(2-methylphenyl)-1H-pyrazole-4-carboxamide hydrochloride]
Cc1nc2cc(C(=O)Nc3ccc4c(c3)CCN(C3CCC3)CC4)ccc2[nH]1.O=C(O)C(F)(F)F [Example 178, N-(3-Cyclobutyl-2,3,4,5-tetrahydro-1H-3-benzazepin-7-yl)-2-methyl-1H-benzimidazole-5-carboxamide trifluoroacetate]
O=C(Nc1ccc2c(c1)CCN(C1CCC1)CC2)c1cccc(N2CCNC2=O)c1 [Example 93, N-(3-Cyclobutyl-2,3,4,5-tetrahydro-1H-3-benzazepin-7-yl)-3-(2-oxo-1-imidazolidinyl)benzamide]
Cl.O=C(Nc1ccc2c(c1)CCN(C1CCC1)CC2)c1cc(-c2ccccc2)n(-c2ccc(F)cc2)n1 [Example 267, N-(3-Cyclobutyl-2,3,4,5-tetrahydro-1H-3-benzazepin-7-yl)-1-(4-fluorophenyl)-5-phenyl-1H-pyrazole-3-carboxamide hydrochloride]
CCCc1c(C(=O)Nc2ccc3c(c2)CCN(C2CCC2)CC3)cnn1-c1ccccc1.Cl [Example 273, N-(3-Cyclobutyl-2,3,4,5-tetrahydro-1H-3-benzazepin-7-yl)-1-phenyl-5-propyl-1H-pyrazole-4-carboxamide hydrochloride]
CCCc1c(C(=O)Nc2ccc3c(c2)CCN(C2CCC2)CC3)cnn1-c1ccccc1Cl.O=C(O)C(F)(F)F [Example 217, 1-(2-Chlorophenyl)-N-(3-cyclobutyl-2,3,4,5-tetrahydro-1H-3-benzazepin-7-yl)-5-propyl-1H-pyrazole-4-carboxamide trifluoroacetate]
O=C(Nc1ccc2c(c1)CCN(C1CCC1)CC2)N1CCN(c2ccccc2)CC1 [Example 155, N-(3-Cyclobutyl-2,3,4,5-tetrahydro-1H-3-benzazepin-7-yl)-4-phenyl-1-piperazinecarboxamide]
N#Cc1ccc(-c2ccc(C(=O)Nc3ccc4c(c3)CCN(C3CCC3)CC4)cn2)cc1 [Example 98, 6-(4-Cyanophenyl)-N-(3-cyclobutyl-2,3,4,5-tetrahydro-1H-3-benzazepin-7-yl)-3-pyridinecarboxamide]
Cc1ccncc1C(=O)Nc1ccc2c(c1)CCN(C1CCC1)CC2 [Example 36, N-(3-Cyclobutyl-2,3,4,5-tetrahydro-1H-3-benzazepin-7-yl)-4-methylnicotinamide]
N#Cc1ccc(N2CCN(C(=O)Nc3ccc4c(c3)CCN(C3CCC3)CC4)CC2)nc1 [Example 145, 4-(5-Cyanopyridin-2-yl)-N-(3-cyclobutyl-2,3,4,5-tetrahydro-1H-3-benzazepin-7-yl)piperazine-1-carboxamide]
N#Cc1ccc(C2CCN(C(=O)Nc3ccc4c(c3)CCN(C3CCC3)CC4)CC2)cc1 [Example 163, 4-(4-Cyanophenyl)-N-(3-cyclobutyl-2,3,4,5-tetrahydro-1H-3-benzazepin-7-yl)-1-piperidinecarboxamide]
Cl.O=C(Nc1ccc2c(c1)CCN(C1CCC1)CC2)c1cnn(-c2ccccc2)c1-c1ccccc1 [Example 268, N-(3-Cyclobutyl-2,3,4,5-tetrahydro-1H-3-benzazepin-7-yl)-1,5-diphenyl-1H-pyrazole-4-carboxamide hydrochloride]
O=C(Nc1ccc2c(c1)CCN(C1CCC1)CC2)c1cccc(=O)[nH]1 [Example 83, N-(3-Cyclobutyl-2,3,4,5-tetrahydro-1H-3-benzazepin-7-yl)-6-oxo-1,6-dihydro-2-pyridinecarboxamide]
O=C(Nc1ccc2c(c1)CCN(C1CCC1)CC2)c1ccc(N2CCCS2(=O)=O)cc1 [Example 86, N-(3-Cyclobutyl-2,3,4,5-tetrahydro-1H-3-benzazepin-7-yl)-4-(1,1-dioxido-2-isothiazolidinyl)benzamide]
O=C(Nc1ccc2c(c1)CCN(C1CCC1)CC2)c1ccnnc1 [Example 51, N-(3-Cyclobutyl-2,3,4,5-tetrahydro-1H-3-benzazepin-7-yl)-4-pyridazinecarboxamide]
O=C(Nc1ccc2c(c1)CCN(C1CCC1)CC2)c1cnc2ccccc2c1.O=C(O)C(F)(F)F [Example 234, N-(3-Cyclobutyl-2,3,4,5-tetrahydro-1H-3-benzazepin-7-yl)-3-quinolinecarboxamide trifluoroacetate]
O=C(Nc1ccc2c(c1)CCN(C1CCC1)CC2)N1CCN(c2cnccn2)CC1 [Example 144, N-(3-Cyclobutyl-2,3,4,5-tetrahydro-1H-3-benzazepin-7-yl)-4-pyrazin-2-ylpiperazine-1-carboxamide]
